The nature of series [1]: Photoluminescence enhancement, titration of gold phosphor with microgel and heating. The format is physicochemical.
The conditions of series [2]: cited from earlier work.

Where two headings read alike, the source gives them in different places.

`O=S(=O)([O-])c1cccc([PH](c2cccc(S(=O)(=O)[O-])c2)(c2cccc(S(=O)(=O)[O-])c2)[Au]([PH](c2cccc(S(=O)(=O)[O-])c2)(c2cccc(S(=O)(=O)[O-])c2)c2cccc(S(=O)(=O)[O-])c2)[PH](c2cccc(S(=O)(=O)[O-])c2)(c2cccc(S(=O)(=O)[O-])c2)c2cccc(S(=O)(=O)[O-])c2)c1` [Na8[Au(TPPTS)3], tris[tris(3,3′,3″-trisulfonatophenyl)phosphine]aurate(I)]: in series [1] (aqueous solution in absence of the PNIPAM microgel, ambient temperature to 37° C.), the “PL change on heating” value is given as “quenching”. The PL enhancement result in series [1] (freshly synthesized Au phosphor 1×10^−5 M (3.00 mL), smaller increments of ~3.5 wt. % microgel) is listed as “up to 157 fold”; in series [1] (gold phosphor 1×10^−5 M, titrated with PNIPAM-co-allylamine microgel, RT), 9 fold; in series [1] (gold phosphor 1×10^−6 M, titrated with PNIPAM-co-allylamine microgel, RT), 50 fold; in series [1] (gold phosphor 3×10^−6 M, titrated with PNIPAM-co-allylamine microgel, RT) it was 17 fold; in series [1] (gold phosphor 5×10^−5 M, titrated with PNIPAM-co-allylamine microgel at constant microgel concentration, RT) it was 4 fold; in series [1] (gold phosphor 5×10^−6 M, titrated with PNIPAM-co-allylamine microgel, RT), 14 fold. Further, in series [1] (on addition of 0.2 mL of microgel, ~1×10^−6 M Au phosphor (2.50 mL), ~2.0 wt. % microgel, pH 5.5, room temperature), the PL enhancement entry is listed as “up to 70 fold”.

In the case of `c1cc2ccc3cccc4ccc(c1)c2c34` [pyrene], the PL enhancement in series [2] (embedded in hydrophobic polystyrene (toluene solution)) is listed as 40 fold.

With `O=C([O-])CC(O)(CC(=O)[O-])C(=O)[O-].[Tb+3]` [terbium citrate], the PL enhancement in series [2] (upon binding to silver nanoparticles in solution (Zhou and co-workers)) is 1.72 fold.

The values above are taken from patent publication US20120065614A1 (UNIVERSITY OF NORTH TEXAS, priority 2010, published 2012).
